PMC9381602
Results are given in words; binding and its absence hold for the method and conditions named. Binding seen in cells or lysates may run through a third protein.

Chains of the proteins cited; added tags and fusions are not shown. Residues count along the entry.
UniProt P02545, residues 1-646: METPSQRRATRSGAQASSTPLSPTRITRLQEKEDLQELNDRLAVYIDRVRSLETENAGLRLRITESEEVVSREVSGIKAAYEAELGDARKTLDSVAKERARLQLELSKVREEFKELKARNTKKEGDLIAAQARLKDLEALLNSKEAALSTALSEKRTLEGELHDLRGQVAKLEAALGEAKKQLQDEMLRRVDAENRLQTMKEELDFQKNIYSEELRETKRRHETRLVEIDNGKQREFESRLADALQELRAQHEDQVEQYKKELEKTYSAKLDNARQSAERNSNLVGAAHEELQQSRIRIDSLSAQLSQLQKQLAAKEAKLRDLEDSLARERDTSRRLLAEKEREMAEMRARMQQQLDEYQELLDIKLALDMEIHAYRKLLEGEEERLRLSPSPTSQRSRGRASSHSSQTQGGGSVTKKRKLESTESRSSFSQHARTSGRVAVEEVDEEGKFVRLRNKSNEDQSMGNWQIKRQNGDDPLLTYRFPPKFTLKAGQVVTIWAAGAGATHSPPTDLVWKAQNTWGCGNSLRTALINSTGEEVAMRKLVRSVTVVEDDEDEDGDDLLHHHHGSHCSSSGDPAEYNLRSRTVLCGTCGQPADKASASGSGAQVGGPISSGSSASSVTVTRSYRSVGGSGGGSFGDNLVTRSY

Target: T1, NONO, endogenous (human (endogenous in HCT116, U2OS, rectal cancer tissue)) (UniProt Q15233)
T1 sequence: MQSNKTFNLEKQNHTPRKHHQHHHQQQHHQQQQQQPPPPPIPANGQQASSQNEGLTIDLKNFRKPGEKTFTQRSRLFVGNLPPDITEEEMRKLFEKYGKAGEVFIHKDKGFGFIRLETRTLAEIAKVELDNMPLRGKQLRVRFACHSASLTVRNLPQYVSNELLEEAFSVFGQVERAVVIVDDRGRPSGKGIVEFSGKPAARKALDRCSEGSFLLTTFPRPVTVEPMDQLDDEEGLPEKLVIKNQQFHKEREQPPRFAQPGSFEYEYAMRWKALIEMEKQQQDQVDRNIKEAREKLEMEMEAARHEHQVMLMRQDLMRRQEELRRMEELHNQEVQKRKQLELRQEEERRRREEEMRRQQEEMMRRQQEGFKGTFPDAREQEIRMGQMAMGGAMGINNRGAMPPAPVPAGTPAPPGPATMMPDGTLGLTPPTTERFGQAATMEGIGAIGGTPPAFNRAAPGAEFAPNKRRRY
Assay: co-IP; cytoplasmic and nuclear proteins of HCT116 cells fractionated, then co-IP with anti-NONO antibody

- binding: no binding
Substance: Lamin A/C, endogenous (from UniProt P02545 1-646)
